Values of other authors in patent US7232828B2, “PPAR Ligands that do not cause fluid retention, edema or congestive heart failure” (Bethesda Pharmaceuticals, Inc., priority 2002, dated 2007).
At least one structure is not confirmed: it was looked up by name or label, or the drawing left a doubt.

Details: diabetic patients; cited from earlier work

For `CCOc1nc2cccc(C(=O)O)c2n1Cc1ccc(-c2ccccc2-c2nnn[nH]2)cc1` [candesartan], the “Effect on hemoglobin A1c, glucose concentration or lipid profile” value is listed as “does not appreciably alter”.
